Test results published in US20060148699 (published 2006).

What was measured:
[1] = general procedure: Fmoc solid-phase peptide synthesis; Rink amide resin; 2-Cl-Trt resin (loading about 0.7 mmol/g); TBTU/HOBt with diisopropylethylamine or collidine; details: whole synthesis, scale of the general procedure 50 g to 250 g resin; for final purity (method not given): HPLC
[2] = peptide synthesis; details: whole synthesis, scale of the general procedure 50 g to 250 g resin

Substance: Cys-Ser-Asn-Leu-Ser-Thr-Cys(Acm)-Val-Leu-Gly-Lys-Leu-Ser-Gln-Glu-Leu-His-Lys-Leu-Gln-Thr-Tyr-Pro-Arg-Thr-Asn-Thr-Gly-Ser-Gly-Thr-Pro-NH2
- final purity (method not given) ([1]; TFA salt): >98.5%
- final HPLC purity ([1]; acetate): >99.5%

Substance: H-Cys-Tyr-Phe-Gln-Asn-Cys(Acm)-Pro-Arg-Gly-NH2
- final purity (method not given) ([1]; TFA salt): >98.5%
- final purity (method not given) ([1]; acetate): >99.0%

Substance: Mpa-Tyr-Phe-Gln-Asn-Cys(Acm)-Pro-D-Arg-Gly-NH2
- final purity (method not given) ([2]; HPLC, TFA salt): >98.5%
- final HPLC purity ([2]; acetate): >99.5%

Substance: H-D-Phe-Cys-Phe-D-Trp-Lys-Thr-Cys(Acm)-Thr-ol
- final purity (method not given) ([1]; TFA salt): >98.5%

Substance: [Mpa][hArg]GDWPC(Acm)-NH2
- final purity (method not given) ([1]; TFA salt): >98.5%

Substance: H-Cys(Acm)-Tyr-Ile-Gln-Asn-Cys-Pro-Leu-Gly-NH2
- final purity (method not given) ([1]; acetate (citrate for Nesiritide)): >98.5%

Square brackets hold non-standard residues; d marks the D form. * marks the point of attachment. hArg = N=C(N)NCCCC[C@H](N)C(=O)O; Acm = CC(=O)NC*; Mpa = O=C(O)CCS
